{"source": "paper doi:10.1101/2025.09.05.674519", "binders": {"B1": {"name": "ULK2 kinase domain (1-276) (domain or fragment, UniProt Q8IYT8 1-276)", "chain": "MEVVGDFEYSKRDLVGHGAFAVVFRGRHRQKTDWEVAIKSINKKNLSKSQILLGKEIKILKELQHENIVALYDVQELPNSVFLVMEYCNGGDLADYLQAKGTLSEDTIRVFLHQIAAAMRILHSKGIIHRDLKPQNILLSYANRRKSSVSGIRIKIADFGFARYLHSNMMAATLCGSPMYMAPEVIMSQHYDAKADLWSIGTVIYQCLVGKPPFQANSPQDLRMFYEKNRSLMPSIPRETSPYLANLLLGLLQRNQKDRMDFEAFFSHPFLEQGPV"}}, "target": "ULK2 kinase domain (1-276) (UniProt Q8IYT8)", "test": "crystal structure", "note": "These are yes or no findings as the source states them, for the method shown. Some results given as binding are weak or reduced against the parent protein; the word gives no strength.", "data": [{"binder": "B1", "values": [{"measurement": "binding", "value": "binds"}]}]}
